Experimental data: paper doi:10.1101/2021.06.08.447515
These are yes or no findings as the source states them, for the method shown. In cells and extracts the contact can be indirect. A yes stands for co-enrichment or nearness to the bait. Other partners may have been found. Tags and fused reporters may be left off the sequences shown.

Target: T1, recombinant canonical H2B (His-tag) (T. cruzi (CL Brener strain)) (UniProt B5U6T3)
T1 sequence: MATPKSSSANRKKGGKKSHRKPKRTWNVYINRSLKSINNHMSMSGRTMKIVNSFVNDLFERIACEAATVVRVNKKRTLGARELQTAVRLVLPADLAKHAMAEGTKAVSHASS
Assay: affinity purification with mass spectrometry

retrotransposon hot spot (RHS) protein (TcCLB.506113.60) (T. cruzi (endogenous in TCTs))
binding: binds
